Measurements taken from patent US8871735B2, “Methods and compositions for providing cardiac protection” (University of Medicine and Dentistry of New Jersey, priority 2008, dated 2014).
For part of these data: At least one structure is not confirmed: it was looked up by name or label, or the drawing left a doubt. Some of these results come from one statement about several compounds together.

Legend:
AC5 = assay: cAMP production in membrane preparations from mouse striatum (AC5 about 80% of total AC activity); type: biochemical; conditions: 50 μM forskolin, 10 μM drug
WT and AC5KO mice = assay: Heart rate and arterial pressure in conscious WT and AC5KO mice; type: in vivo, mouse; conditions: 0.05 mg/kg i.v.
Excerpt: In AC5KO and WT mice, four ECG wires (New England Electric Wire Corporation, Lisbon, N.H., USA) were placed subcutaneously, a silicone elastomer tubing (Cardiovascular Instrument Corp., Wakefield, Mass., USA) was inserted into the right external jugular vein and a 1.4 F micromanometer catheter (Millar Instruments, Inc., Houston, Tex., USA) was inserted into the lower abdominal aorta via the femoral artery as described previously with some modifications. The ECG wires, the silicone elastomer tubing and the micromanometer catheter were tunneled subcutaneously to the back, externalized, and secured in a plastic cap. […] All experiments were recorded with animals in the conscious state. After at least 6 hours recovery from the implantation of the catheter, when a stable heart rate (HR) was achieved, the baseline ECG and arterial pressure (AP) were recorded for 5 min. […]
Electrocardiogram (ECG) wires, a jugular vein catheter for drug infusion, and a femoral artery catheter for arterial pressure monitoring were implanted under anesthesia. […] In addition, in conscious mice ACh (0.01 and 0.05 mg/kg), atropine (0.25, 1 and 2 mg/kg), or verapamil (0.75 mg/kg) were administered i.v., and the ECG was recorded. […] To examine HR responses to baroreflex hypertension, phenylephrine (0.2 mg/kg i.v.) was infused, and the ECG and arterial pressure were measured.

Structure (SMILES) | inhibition in the striatum membrane (AC5) | decrease in HR at high dose (WT and AC5KO mice)
Nc1nc(F)nc2c1ncn2[C@H]1C[C@H](O)[C@@H](CO)O1 [2-fluoro-2′-deoxyadenosine, 2-Fluoro-2′-deoxyadenosine] | more than 50% | –
CC(=O)OCC[N+](C)(C)C [ACh, acetylcholine] | – | decreased HR similarly in both WT and AC5KO
Nc1ncnc2c([C@@H]3O[C@H](CO)[C@@H](O)[C@H]3O)n[nH]c12 [FMA, 7-Amino-3-(β-D-ribofuranosyl)-1H-pyrazolo[4,3-d]pyrimidine] | more than 50% | –
